# According to US6558912:
# The chains behind the UniProt entries cited, without tags or fusion partners. Residues count along the entry.
# UniProt P07174, residues 30-425: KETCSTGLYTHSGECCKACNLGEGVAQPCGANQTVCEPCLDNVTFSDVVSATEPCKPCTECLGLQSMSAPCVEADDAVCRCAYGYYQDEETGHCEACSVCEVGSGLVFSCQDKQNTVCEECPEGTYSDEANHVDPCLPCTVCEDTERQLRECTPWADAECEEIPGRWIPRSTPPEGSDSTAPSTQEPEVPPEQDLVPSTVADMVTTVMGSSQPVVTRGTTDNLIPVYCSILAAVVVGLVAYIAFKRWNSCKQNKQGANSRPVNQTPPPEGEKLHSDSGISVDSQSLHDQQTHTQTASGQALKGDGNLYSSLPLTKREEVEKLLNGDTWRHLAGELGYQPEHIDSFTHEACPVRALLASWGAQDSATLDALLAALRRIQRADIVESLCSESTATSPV
# Results are given in words; binding and its absence hold for the method and conditions named. Binding seen in cells or lysates may run through a third protein. Some results given as binding are weak or reduced against the parent protein; the word gives no strength.
# B1: endogenous NRAGE of PC12 cells (protein, UniProt Q9ES73 1-775, looked up)
# chain: MAQKPDGGAGLRGFQAEASVEDSALLVQTLMEAIQISEAPPTSQATAAASGPNASPQSSQPPTANEKADTEVSAAAARPKTGFKAQNTTTKGPNDYSQARNAKEMPKNQPKVAFKSQNATSKGPHAASDFSHAASTGKSAAKKSEMAFKGQNTTTKAGPSATYNFTQSPSANEMTNNQPKTAKAWNDTTKIPGADAQTQNVNQAKMADVGTSAGISETDGAAAQTSADGSQAQNVESRTIIRGKRTRKINNLNVEENSNGDQRRASLASGNWRSAPVPVTTQNPPGAPPNVLWQTPLAWQNPSGWQNQTARQTPPARQSPPARQTPSAWQNPVAWQNPVIWPNPVIWQNPVIWPNPIVWPGPIVWPNPMAWQSTPGWQSPPSWQAPPSWQSPQDWQGPPDWQLPPDWSMPPDWSFPSDWPFPPDWIPADWPIPPDWQNLRPSPNLRSSPNSRASQNQGPPQPRDVALLQERANKLVKYLMLKDYTKVPIKRSEMLRDIIREYTDVYPEIIERACFVLEKKFGIQLKEIDKEEHLYILISTPESLAGILGTTKDTPKLGLLLVILGIIFMNGNRATEAVLWEALRKMGLRPGVRHPLLGDLRKLLTYEFVKQKYLDYRRVPNSNPPEYEFLWGLRSYHETSKMKVLRFIAEVQKRDPRDWTAQFMEAADEALDALDAAAAEAEARAEARNRMGIGDEAVSGPWSWDDIEFELLTWDEEGDFGDPWSRIPFTFWARYHQNARSRFPQAFTGPIIGPSGTATANFAANFGAIGFFWVE
# Target: endogenous p75NTR of PC12 cells (UniProt P07174)
# Assay: co-immunoprecipitation from PC12 cells
binder,measurement,value
B1,binding,binds
